Measured values from US20200061153A1 (BAYLOR COLLEGE OF MEDICINE, published 2020).

Experiments:
[1] = target: T1, P-selectin/Fc chimeric protein (UniProt P16109 42-771); assay: SPR (BIACore), binding to immobilized P-sel/Fc, IgG control
T1 construct: also called P-sel/Fc; P-selectin/Fc protein; not shown: Fc part
T1 sequence (looked up): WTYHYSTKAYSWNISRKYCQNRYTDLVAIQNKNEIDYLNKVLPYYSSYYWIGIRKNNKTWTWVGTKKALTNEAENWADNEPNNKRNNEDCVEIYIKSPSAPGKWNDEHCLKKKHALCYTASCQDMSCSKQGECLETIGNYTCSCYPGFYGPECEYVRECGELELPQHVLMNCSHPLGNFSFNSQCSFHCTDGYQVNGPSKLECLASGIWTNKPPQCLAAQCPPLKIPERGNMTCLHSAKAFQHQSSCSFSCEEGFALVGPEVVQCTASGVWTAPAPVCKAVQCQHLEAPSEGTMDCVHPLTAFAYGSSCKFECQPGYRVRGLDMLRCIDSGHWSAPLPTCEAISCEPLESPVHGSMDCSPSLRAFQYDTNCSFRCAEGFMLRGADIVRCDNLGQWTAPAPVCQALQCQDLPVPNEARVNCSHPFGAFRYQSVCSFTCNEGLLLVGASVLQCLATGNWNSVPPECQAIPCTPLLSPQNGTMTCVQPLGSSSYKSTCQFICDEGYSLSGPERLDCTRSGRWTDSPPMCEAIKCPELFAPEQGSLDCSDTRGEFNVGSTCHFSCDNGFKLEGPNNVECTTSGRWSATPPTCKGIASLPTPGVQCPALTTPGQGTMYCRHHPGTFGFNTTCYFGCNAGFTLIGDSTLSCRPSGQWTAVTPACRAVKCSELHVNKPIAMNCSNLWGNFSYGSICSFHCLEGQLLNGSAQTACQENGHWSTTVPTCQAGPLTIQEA
Experimental: (§1) The observations in these experiments, in certain embodiments, are attributed to srhVim either affecting P-selectin, PSGL-1, or both. ELISA was performed by coating 96-well plates with either PSGL-1/Fc protein (10 μg/mL), P-selectin/Fc protein (10 μg/mL), or BSA (10 μg/mL) and adding various concentrations of srhVim to each well. Detection was through anti-His/HRP antibodies. Increasing amounts of srhVim bound to P-selectin/Fc protein and reached saturation at 20 μg/mL. There was no binding of srhVim to PSGL-1/Fc (FIG. 6B).

[2] = target: T1, P-selectin/Fc chimeric protein; assay: SPR (BIACore), response (RU) against concentration (M); text: binding to immobilized P-sel/Fc, IgG as control
Experimental: as §1

Kd [1]: ~125 nM
Kd [2]: 125 nM
B1: rod domain of human vimentin (amino acids 96-407), expressed from pET30 in E. coli (other)
chain: FKNTRTNEKVELQELNDRFANYIDKVRFLEQQNKILLAELEQLKGQGKSRLGDLYEEEMRELRRQVDQLTNDKARVEVERDNLAEDIMRLREKLQEEMLQREEAENTLQSFRQDVDNASLARLDLERKVESLQEEIAFLKKLHEEEIQELQAQIQEQHVQIDVDVSKPDLTAALRDVRQQYESVAAKNLQEAEEWYKSKFADLSEAANRNNDALRQAKQESTEYRRQVQSLTCEVDALKGTNESLERQMREMEENFAVEAANYQDTIGRLQDEIQNMKEEMARHLREYQDLLNVKMALDIEIATYRKLLEGE
notes: also called ROD vimentin; a portion of vimentin; not shown: His tag from pET30 (Ni2+ purification)
